Some of the results follow. Small differences around the control level are noise.
compound: CN[C@@H]1C[C@H]2O[C@@](C)([C@@H]1OC)n1c3ccccc3c3c4c(c5c6ccccc6n2c5c31)C(=O)NC4 [staurosporine]; assay: log2 fold change of tryptic peptide abundance, ligand vs vehicle (limited proteolysis) (log2 ratio); higher = more trypsin-susceptible (destabilized); settings: ligand concentration: 20 uM; sample: mouse liver crude lysate; replicate design: treated separately

The chains behind the UniProt entries cited, without tags or fusion partners. Where a name states a change or a piece, a line headed by the entry shows the natural chain unless it says otherwise.
UniProt P32233: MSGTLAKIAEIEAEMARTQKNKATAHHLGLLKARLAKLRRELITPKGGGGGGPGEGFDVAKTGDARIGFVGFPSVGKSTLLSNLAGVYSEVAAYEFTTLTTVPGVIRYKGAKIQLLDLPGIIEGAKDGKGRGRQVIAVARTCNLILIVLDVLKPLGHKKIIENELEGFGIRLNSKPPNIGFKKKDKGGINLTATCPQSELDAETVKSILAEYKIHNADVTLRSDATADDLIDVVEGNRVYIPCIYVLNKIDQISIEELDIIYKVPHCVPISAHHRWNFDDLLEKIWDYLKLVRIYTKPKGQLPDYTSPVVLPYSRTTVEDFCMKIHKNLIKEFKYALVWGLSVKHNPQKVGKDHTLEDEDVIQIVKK
UniProt P31230: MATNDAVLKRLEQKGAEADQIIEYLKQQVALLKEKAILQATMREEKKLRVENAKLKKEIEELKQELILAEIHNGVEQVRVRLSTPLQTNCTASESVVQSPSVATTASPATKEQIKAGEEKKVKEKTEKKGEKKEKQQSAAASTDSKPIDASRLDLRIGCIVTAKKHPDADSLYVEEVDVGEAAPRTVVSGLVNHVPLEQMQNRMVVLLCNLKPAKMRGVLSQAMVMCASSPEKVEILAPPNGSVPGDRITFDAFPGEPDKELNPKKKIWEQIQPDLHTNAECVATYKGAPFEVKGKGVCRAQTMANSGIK
UniProt P33175: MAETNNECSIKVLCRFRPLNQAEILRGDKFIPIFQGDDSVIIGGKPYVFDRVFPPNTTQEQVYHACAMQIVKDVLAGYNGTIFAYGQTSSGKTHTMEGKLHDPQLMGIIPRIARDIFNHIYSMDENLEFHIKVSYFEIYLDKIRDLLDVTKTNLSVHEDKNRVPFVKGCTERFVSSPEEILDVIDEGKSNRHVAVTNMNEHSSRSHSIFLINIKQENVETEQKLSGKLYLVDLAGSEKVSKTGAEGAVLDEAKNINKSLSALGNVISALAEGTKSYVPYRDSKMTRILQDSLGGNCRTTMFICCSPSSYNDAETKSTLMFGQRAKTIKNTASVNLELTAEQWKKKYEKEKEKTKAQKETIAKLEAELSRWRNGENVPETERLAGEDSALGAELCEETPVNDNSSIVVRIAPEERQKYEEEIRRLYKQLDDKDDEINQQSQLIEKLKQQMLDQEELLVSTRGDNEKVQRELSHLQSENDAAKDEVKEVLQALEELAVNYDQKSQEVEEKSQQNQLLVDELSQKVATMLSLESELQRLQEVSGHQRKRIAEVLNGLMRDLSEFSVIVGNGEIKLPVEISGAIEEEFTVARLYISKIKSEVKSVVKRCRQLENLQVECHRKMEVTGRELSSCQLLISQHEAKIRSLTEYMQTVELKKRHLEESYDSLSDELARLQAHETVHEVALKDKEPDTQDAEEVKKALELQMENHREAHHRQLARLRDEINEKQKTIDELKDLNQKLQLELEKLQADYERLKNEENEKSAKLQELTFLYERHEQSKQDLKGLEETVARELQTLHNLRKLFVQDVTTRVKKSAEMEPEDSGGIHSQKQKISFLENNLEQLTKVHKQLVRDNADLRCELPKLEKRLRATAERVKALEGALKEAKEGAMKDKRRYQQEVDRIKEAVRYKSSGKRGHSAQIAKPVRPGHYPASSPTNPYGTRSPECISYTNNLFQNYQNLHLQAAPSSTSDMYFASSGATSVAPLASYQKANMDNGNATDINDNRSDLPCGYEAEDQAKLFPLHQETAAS
UniProt P34022, whole entry: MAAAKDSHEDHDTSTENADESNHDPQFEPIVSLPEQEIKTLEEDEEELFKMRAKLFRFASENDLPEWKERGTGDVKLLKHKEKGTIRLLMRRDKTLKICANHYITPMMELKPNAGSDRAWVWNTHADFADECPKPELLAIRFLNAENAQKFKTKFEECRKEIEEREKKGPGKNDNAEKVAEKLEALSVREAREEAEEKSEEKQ
UniProt P30282: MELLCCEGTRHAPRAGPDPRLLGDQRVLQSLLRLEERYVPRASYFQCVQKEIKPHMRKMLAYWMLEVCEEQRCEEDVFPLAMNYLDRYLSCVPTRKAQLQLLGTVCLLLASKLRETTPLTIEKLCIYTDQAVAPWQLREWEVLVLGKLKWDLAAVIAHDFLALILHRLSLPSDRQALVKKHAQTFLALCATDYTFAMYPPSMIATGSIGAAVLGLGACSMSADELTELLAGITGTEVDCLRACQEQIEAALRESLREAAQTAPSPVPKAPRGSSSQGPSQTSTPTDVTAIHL
UniProt P27601: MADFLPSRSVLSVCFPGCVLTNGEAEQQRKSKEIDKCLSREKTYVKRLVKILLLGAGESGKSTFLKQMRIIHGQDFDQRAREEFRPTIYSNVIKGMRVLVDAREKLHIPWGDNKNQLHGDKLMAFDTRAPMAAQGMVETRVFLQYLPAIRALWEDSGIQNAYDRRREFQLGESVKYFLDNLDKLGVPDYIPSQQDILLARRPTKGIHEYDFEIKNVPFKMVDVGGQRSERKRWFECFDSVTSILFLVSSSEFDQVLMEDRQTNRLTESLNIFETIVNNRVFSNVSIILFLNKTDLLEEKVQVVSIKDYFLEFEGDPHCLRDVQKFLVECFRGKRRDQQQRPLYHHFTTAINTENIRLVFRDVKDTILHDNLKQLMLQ
UniProt P20443, whole entry: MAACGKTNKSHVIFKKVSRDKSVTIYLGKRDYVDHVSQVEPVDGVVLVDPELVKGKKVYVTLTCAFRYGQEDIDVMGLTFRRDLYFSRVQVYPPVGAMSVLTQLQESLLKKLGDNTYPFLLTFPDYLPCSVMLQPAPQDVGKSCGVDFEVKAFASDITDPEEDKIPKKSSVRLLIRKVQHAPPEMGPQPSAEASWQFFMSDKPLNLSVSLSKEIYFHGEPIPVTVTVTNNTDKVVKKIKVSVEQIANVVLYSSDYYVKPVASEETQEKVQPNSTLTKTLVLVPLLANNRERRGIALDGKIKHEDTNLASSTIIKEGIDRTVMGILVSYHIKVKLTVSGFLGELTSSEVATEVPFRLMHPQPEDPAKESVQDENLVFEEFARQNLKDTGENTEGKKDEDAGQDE
UniProt P23188, whole entry: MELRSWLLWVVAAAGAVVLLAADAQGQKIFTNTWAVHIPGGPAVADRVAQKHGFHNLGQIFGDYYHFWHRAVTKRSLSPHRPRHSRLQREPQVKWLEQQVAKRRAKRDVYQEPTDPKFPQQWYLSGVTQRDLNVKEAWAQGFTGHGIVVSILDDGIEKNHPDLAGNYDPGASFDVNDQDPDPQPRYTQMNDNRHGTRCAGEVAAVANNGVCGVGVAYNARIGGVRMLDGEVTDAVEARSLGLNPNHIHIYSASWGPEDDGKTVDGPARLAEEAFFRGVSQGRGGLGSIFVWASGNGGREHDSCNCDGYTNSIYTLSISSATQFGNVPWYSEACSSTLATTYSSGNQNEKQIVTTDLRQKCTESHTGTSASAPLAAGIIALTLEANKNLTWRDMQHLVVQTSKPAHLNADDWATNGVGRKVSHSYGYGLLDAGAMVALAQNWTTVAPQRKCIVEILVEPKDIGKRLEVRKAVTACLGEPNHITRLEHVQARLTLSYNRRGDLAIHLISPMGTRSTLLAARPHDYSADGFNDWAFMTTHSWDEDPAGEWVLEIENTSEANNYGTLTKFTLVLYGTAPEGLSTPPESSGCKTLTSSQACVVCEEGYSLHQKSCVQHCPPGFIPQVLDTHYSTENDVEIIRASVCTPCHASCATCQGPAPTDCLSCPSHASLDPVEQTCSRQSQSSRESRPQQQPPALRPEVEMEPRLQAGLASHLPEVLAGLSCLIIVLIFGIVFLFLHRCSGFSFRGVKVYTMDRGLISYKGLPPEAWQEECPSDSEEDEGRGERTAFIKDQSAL
UniProt P25119: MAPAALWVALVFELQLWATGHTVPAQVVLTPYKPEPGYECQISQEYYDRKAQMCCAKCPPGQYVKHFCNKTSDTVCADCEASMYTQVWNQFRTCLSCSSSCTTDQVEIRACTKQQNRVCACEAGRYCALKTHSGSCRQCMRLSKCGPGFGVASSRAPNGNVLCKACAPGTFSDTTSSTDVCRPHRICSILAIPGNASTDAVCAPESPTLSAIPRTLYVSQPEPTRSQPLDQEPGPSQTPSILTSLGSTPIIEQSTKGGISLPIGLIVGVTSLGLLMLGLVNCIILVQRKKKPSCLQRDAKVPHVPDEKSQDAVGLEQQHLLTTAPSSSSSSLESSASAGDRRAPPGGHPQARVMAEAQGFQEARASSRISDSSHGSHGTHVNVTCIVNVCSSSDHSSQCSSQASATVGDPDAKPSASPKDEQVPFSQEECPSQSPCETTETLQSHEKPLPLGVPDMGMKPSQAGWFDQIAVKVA
UniProt P25911: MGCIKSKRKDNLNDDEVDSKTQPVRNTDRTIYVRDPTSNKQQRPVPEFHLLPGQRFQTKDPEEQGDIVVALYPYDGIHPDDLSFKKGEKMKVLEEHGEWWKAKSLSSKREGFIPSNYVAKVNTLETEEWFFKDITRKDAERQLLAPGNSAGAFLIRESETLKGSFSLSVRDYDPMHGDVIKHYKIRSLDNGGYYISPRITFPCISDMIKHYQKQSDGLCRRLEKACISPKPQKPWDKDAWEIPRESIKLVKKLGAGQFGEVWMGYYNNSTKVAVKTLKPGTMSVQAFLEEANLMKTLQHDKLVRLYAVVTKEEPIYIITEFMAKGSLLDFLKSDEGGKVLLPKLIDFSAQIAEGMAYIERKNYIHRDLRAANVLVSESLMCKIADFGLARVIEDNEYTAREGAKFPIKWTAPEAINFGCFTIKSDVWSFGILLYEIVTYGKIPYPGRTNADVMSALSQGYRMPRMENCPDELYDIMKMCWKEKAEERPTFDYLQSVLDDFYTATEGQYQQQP
UniProt P20029: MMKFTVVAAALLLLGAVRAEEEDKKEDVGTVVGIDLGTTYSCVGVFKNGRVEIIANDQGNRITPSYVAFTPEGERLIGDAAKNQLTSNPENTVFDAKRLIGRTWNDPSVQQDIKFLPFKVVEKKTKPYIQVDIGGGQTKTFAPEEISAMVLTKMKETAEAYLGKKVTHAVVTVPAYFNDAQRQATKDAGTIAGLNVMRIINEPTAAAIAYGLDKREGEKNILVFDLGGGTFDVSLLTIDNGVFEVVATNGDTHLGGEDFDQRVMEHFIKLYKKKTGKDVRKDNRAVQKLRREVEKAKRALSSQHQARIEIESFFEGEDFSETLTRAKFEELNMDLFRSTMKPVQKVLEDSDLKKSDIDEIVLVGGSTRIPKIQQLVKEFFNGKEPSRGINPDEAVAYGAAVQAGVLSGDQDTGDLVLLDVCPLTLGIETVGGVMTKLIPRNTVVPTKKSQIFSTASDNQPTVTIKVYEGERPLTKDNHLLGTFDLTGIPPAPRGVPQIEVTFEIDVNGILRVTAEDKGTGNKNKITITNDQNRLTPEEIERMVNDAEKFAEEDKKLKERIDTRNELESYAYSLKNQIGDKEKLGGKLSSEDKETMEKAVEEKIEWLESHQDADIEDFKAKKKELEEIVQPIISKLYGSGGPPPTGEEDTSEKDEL
UniProt P28230: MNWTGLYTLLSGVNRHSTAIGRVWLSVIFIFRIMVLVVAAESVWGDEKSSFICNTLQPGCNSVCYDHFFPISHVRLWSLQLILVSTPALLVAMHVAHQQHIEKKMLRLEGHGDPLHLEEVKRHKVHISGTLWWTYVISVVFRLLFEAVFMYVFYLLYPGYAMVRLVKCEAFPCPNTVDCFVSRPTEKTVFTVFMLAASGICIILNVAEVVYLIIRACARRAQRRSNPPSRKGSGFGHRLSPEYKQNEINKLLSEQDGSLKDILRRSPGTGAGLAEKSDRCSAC
UniProt P19536: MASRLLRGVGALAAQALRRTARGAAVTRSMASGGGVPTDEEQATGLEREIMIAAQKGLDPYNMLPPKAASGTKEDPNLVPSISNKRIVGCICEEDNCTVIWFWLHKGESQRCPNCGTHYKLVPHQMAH
UniProt P27641: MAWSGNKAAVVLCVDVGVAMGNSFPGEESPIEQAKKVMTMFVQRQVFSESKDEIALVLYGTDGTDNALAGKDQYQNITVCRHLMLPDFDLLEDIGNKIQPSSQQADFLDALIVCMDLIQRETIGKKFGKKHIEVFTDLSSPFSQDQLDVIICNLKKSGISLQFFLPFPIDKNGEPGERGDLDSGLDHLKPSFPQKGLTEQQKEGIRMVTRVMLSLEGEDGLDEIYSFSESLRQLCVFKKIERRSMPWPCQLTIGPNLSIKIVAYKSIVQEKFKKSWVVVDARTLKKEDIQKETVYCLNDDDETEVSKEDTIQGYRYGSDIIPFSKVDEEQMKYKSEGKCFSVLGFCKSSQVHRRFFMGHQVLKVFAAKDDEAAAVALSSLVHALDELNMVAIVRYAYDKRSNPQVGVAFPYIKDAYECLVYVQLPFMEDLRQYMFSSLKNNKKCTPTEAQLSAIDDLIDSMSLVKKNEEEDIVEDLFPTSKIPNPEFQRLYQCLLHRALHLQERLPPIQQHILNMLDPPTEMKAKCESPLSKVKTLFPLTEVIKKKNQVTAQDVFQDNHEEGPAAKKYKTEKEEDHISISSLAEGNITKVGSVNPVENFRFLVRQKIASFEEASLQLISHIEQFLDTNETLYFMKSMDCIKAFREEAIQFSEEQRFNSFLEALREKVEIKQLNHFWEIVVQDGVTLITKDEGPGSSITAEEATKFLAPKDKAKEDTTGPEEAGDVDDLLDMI

Target | log2 fold change
UniProt P33215 (peptide sequence: NLEKFEKPEK, peptide start residue: 524) | 0.307
UniProt P32233 (peptide sequence: TTVEDFCMK, peptide start residue: 316) | -0.679
UniProt P31230 (peptide sequence: MVVLLCNLKPAK, peptide start residue: 204) | 0.293
UniProt P17717 (peptide sequence: IILDELVQR, peptide start residue: 41) | -0.422
UniProt P16294 (peptide sequence: IEVVAGEYNIDK, peptide start residue: 285) | 0.177
UniProt P33175 (peptide sequence: TNLSVHEDKNR, peptide start residue: 151) | 0.0846
UniProt P23798 (peptide sequence: RNGPLPLK, peptide start residue: 215) | 0.242
UniProt P34022 (peptide sequence: FLNAENAQK, peptide start residue: 142) | -0.229
UniProt P35123 (peptide sequence: KPYLEPK, peptide start residue: 415) | -0.199
UniProt P27870 (peptide sequence: YTDTLGSIQQHFMKPLQR, peptide start residue: 209) | 0.326
UniProt P26187 (peptide sequence: SSFESTSSEPSGR, peptide start residue: 198) | 0.472
UniProt P30282 (peptide sequence: MELLCCEGTRHAPR, peptide start residue: 1) | -0.338
UniProt P28574 (peptide sequence: NHTHQQDIDDLKR, peptide start residue: 78) | 0.367
UniProt P27601 (peptide sequence: DVKDTILHDNLK, peptide start residue: 361) | -0.361
UniProt P16045 (peptide sequence: FNAHGDANTIVCNTK, peptide start residue: 50) | 0.248
UniProt P34884 (peptide sequence: LLCGLLSDR, peptide start residue: 79) | -0.166

Target | log2 fold change
UniProt P20443 (peptide sequence: VYVTLTCAFR, peptide start residue: 53) | 0.168
UniProt P20852 (peptide sequence: YGPVFTIYLGPRR, peptide start residue: 65) | 0.259
UniProt P22682 (peptide sequence: ALVIAHNNIEMAK, peptide start residue: 884) | 0.203
UniProt P23188 (peptide sequence: ESRPQQQPPALRPEVEMEPR, peptide start residue: 684) | -0.127
UniProt P28650 (peptide sequence: ASNDRPPGTGGVK, peptide start residue: 6) | 0.245
UniProt P25119 (peptide sequence: VMAEAQGFQEAR, peptide start residue: 353) | -0.406
UniProt P29754 (peptide sequence: ALNSSTEDGIKR, peptide start residue: 2) | 0.291
UniProt P25911 (peptide sequence: DYDPMHGDVIK, peptide start residue: 171) | 0.507
UniProt P20029 (peptide sequence: NKITITNDQNR, peptide start residue: 523) | -0.907
UniProt P23242 (peptide sequence: KVAAGHELQPLAIVDQRPSSR, peptide start residue: 346) | 0.0285
UniProt P16882 (peptide sequence: GLILNATALPLPDKK, peptide start residue: 617) | -0.0859
UniProt P28230 (peptide sequence: RSPGTGAGLAEK, peptide start residue: 265) | -0.193
UniProt P19536 (peptide sequence: EIMIAAQK, peptide start residue: 49) | -0.147
UniProt P23780 (peptide sequence: SLYPLTFTQVK, peptide start residue: 401) | 0.0716
UniProt P27641 (peptide sequence: ALHLQER, peptide start residue: 498) | 0.305

An excerpt of these results, tab-delimited.
Target	log2 fold change
UniProt P34022 (peptide sequence: FLNAENAQK, peptide start residue: 142)	-0.229
UniProt P27641 (peptide sequence: ALHLQER, peptide start residue: 498)	0.305

— the supplement of paper PMC12819154, “High-throughput peptide-centric local stability assay extends protein–ligand identification to membrane proteins, tissues and bacteria” (Nature Structural & Molecular Biology, 2025)
